Measured values published in patent US20180333455A1.
No constants are given. Whether binding was seen depends on the method and setting. Some results given as binding are weak or reduced against the parent protein; the word gives no strength.

Columns and labels:
[1] = biological target: T1, β-dystroglycan (mouse) (UniProt Q62165); assay: FITC-TCAP-1 binding assay with β-DG immunohistochemistry on mouse gastrocnemius sections
T1 sequence (looked up): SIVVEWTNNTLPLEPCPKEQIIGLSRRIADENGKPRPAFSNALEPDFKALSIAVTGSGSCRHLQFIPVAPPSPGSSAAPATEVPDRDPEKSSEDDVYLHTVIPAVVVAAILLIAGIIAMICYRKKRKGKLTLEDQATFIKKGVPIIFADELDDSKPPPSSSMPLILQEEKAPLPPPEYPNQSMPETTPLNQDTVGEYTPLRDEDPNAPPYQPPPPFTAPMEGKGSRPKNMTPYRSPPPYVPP

[2] = biological target: T2, latrophilin-1 (mouse) (UniProt Q80TR1); assay: fluorescence co-localization of FITC-TCAP-1 with latrophilin-1 immunoreactivity on Hypo E-38 cells
T2 sequence (looked up): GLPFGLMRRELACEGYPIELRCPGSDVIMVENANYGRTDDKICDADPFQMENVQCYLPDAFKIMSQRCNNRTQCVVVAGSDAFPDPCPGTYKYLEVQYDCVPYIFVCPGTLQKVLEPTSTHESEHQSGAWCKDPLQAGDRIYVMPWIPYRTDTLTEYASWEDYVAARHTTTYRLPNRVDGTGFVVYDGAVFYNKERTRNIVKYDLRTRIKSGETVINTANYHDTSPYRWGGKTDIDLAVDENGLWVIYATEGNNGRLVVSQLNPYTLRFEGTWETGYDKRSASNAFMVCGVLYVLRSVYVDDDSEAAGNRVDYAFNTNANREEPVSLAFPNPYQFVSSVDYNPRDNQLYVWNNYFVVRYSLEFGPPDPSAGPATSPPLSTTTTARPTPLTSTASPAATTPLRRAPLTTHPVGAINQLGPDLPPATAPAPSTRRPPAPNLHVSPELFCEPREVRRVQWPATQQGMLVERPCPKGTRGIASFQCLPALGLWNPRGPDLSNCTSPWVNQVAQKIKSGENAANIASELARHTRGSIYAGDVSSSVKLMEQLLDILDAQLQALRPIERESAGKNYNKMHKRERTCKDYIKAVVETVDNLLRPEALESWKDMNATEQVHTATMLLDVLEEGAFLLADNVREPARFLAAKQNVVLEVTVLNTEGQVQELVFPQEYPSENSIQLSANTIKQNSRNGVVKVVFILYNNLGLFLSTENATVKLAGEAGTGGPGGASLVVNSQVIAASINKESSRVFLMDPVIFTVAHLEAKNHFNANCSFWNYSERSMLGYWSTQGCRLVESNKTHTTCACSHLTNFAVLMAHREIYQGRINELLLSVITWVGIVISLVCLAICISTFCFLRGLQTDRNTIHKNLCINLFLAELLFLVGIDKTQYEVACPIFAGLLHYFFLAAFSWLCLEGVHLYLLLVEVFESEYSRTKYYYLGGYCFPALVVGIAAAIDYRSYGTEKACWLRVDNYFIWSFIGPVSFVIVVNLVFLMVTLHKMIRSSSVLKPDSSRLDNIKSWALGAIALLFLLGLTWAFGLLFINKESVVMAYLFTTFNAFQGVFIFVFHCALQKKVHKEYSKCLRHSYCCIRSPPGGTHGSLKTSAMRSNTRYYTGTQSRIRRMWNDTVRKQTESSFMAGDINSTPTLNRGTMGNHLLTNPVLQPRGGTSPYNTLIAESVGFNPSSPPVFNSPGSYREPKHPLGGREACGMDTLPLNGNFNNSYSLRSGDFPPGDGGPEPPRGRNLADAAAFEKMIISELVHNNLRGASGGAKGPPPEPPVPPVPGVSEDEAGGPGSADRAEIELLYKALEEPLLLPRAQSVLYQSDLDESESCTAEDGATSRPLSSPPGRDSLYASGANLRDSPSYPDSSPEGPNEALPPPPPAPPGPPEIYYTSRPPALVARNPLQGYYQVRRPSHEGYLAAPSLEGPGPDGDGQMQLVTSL

[3] = biological target: T2, latrophilin-1 (mouse); assay: fluorescence co-localization on Hypo E-38 cells (FIG. 10B legend)

Measured: binding

QQLLGTGKVQGYDGYFVLSVEQYLELSDSANNIHFMRQSEI (FITC conjugated to the primary amine of the lysine group (K8)) [FITC-[K8]-TCAP-1]
binds: [1] | [2] | [3]
